Test results reported in the supplement of paper PMC9254222.
Counter-ions that a name gives are not always drawn. Whole data set: some 1,100 compounds, median “Wnt reporter firefly/Renilla luciferase ratio relative to plate median” near 1.1, cut for the highest 2% near 1.6. The list shows a part of the results, in another mix than the full data.

System: HEK293T (UBE3A T485A transfected, BAR Wnt reporter)
Assay: Wnt reporter firefly/Renilla luciferase ratio relative to plate median (fold (linear ratio)); higher = more Wnt/beta-catenin reporter activation
Conditions: 24 h
In short: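 HEK293T cells were seeded at 4500 cells/well in white 384-well plates and grown in DMEM with 10% FBS at 37°C and 5% CO2. The cells were transfected using Fugene 6 with a BAR firefly luciferase Wnt reporter, TK-Renilla and an expression plasmid, and four hours later robots added the chemicals at 0.01–100 uM for 24 h before a Dual-Glo luciferase readout. Wnt activity was taken as the firefly/Renilla ratio and cell health as raw Renilla, each median-centred per plate. Values are averages of four biological replicates.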

SMILES | Wnt reporter firefly/Renilla luciferase ratio (concentration: 0.1 uM) | Wnt reporter firefly/Renilla luciferase ratio (concentration: 1 uM) | Wnt reporter firefly/Renilla luciferase ratio (concentration: 10 uM) | Wnt reporter firefly/Renilla luciferase ratio (concentration: 100 uM) | Wnt reporter firefly/Renilla luciferase ratio (concentration: 0.01 uM)
COCCOCCOCCOC [Triethylene glycol dimethyl ether] | 1.07 | 1.1 | 1.03 | 1.36 | 
Nc1cccc2c(N)cccc12 [1,5-Naphthalenediamine] | 1.09 | 0.956 | 1.11 | 0.569 | 
Cn1c(=O)c2c(ncn2C)n(C)c1=O [Caffeine] | 0.985 | 1.06 | 0.97 | 1.48 | 0.921
COC(=O)c1ccccc1O [Methyl salicylate] | 1.27 | 1.57 | 1.25 | 0.718 | 
O=C(O)c1cn(C2CC2)c2cc(N3CCNCC3)c(F)cc2c1=O [Ciprofloxacin] | 0.853 | 1.01 | 0.882 | 1.74 | 0.979
CCCCCCCCCCCCCCCCOS(=O)(=O)[O-].[Na+] [Sodium hexyldecyl sulfate] |  |  |  | 1.7 | 
COc1ccc(-n2nc(C(F)F)cc2-c2ccc(S(C)=O)cc2)cc1 (configuration not stated) | 0.843 | 0.844 | 1.07 | 1.17 | 
Cc1nc(-c2ccc3c(c2)CCN(CCC2CCC(NC(=O)/C=C/c4ccc(F)cc4)CC2)CC3)no1.Cl (configuration not stated) | 1.22 | 0.948 | 0.916 | 0.983 | 
CC(C)(C)c1ccc(O)c(C(C)(C)C)c1 [2,4-Di-tert-butylphenol] | 0.984 | 1.32 | 1.13 | 1.1 | 
C=CCCCCCCCCC(=O)O [10-Undecenoic acid] | 1.01 | 1.37 | 1.04 | 0.751 | 
CC/C(=C(\c1ccccc1)c1ccc(OCCN(C)C)cc1)c1ccccc1.O=C(O)CC(O)(CC(=O)O)C(=O)O [Tamoxifen citrate] | 0.922 | 0.964 | 0.891 | 1.01 | 
OC[C@H]1O[C@@H]2O[C@H]3[C@H](O)[C@@H](O)[C@@H](O[C@H]4[C@H](O)[C@@H](O)[C@@H](O[C@H]5[C@H](O)[C@@H](O)[C@@H](O[C@H]6[C@H](O)[C@@H](O)[C@@H](O[C@H]7[C@H](O)[C@@H](O)[C@@H](O[C@H]1[C@H](O)[C@H]2O)O[C@@H]7CO)O[C@@H]6CO)O[C@@H]5CO)O[C@@H]4CO)O[C@@H]3CO [alpha-Cyclodextrin] | 1.02 | 1.09 | 0.976 | 0.971 | 
CC1=C(/C=C/C(C)=C/C=C/C(C)=C/CO)C(C)(C)CCC1 [Retinol] | 0.805 | 0.782 | 1 | 0.6 | 
O=C(N[C@@H](Cc1ccccc1)[C@@H](O)C(=O)N1C[C@@H](O)[C@@H](O)C1)c1cc2cc(Cl)ccc2[nH]1 [Ingliforib] | 1.29 | 1.69 | 0.888 | 0.353 | 
S=C([S-])NCCNC(=S)[S-].[Mn+2] [Maneb] | 1.01 | 0.993 | 1.27 | 0.987 | 1.04
CCCCCCCCCCCCCCC [Pentadecane] | 1.42 | 1.06 | 1.41 | 1.36 | 
Cc1cn([C@H]2C=C[C@@H](CO)O2)c(=O)[nH]c1=O [Stavudine] | 1.03 | 1.04 | 0.931 | 1.62 | 
CCCCCCCCCCCCCCCCO [1-Hexadecanol] | 1.44 | 1.1 | 1.22 | 1.38 | 
O=C1CN(N=Cc2ccc([N+](=O)[O-])o2)C(=O)N1 [Nitrofurantoin] | 1.09 | 0.833 | 0.499 | 0.0548 | 
CCOCCOCCO [2-(2-Ethoxyethoxy)ethanol] | 0.833 | 1.24 | 0.948 | 1.26 | 
CC[C@H]1CC[C@H](NCc2cc3c(cc2OC)[C@H]2C[C@H]2C(=O)N3C)[C@H](c2ccccc2)N1 | 1.1 | 1.22 |  |  | 

SMILES | Wnt reporter firefly/Renilla luciferase ratio (concentration: 0.1 uM) | Wnt reporter firefly/Renilla luciferase ratio (concentration: 1 uM) | Wnt reporter firefly/Renilla luciferase ratio (concentration: 10 uM) | Wnt reporter firefly/Renilla luciferase ratio (concentration: 100 uM) | Wnt reporter firefly/Renilla luciferase ratio (concentration: 0.01 uM)
Cc1cccc2ccccc12 [1-Methylnaphthalene] | 1.12 | 0.916 | 1.2 | 1.41 | 
C[Si]1(C)O[Si](C)(C)O[Si](C)(C)O[Si](C)(C)O1 [Octamethylcyclotetrasiloxane] | 1.23 | 1 | 0.917 | 1.14 | 
CCCCCCCCO [1-Octanol] | 0.948 | 0.949 | 1.11 | 1.09 | 
NC(=O)NO [Hydroxyurea] | 1.04 | 0.964 | 1.14 | 0.637 | 
CCCN(C1CCN(C(=O)C2CCNCC2)CC1)[C@@H]1CCc2ccc(OC)cc2C1 | 1.01 | 0.953 | 1.1 |  | 
CC(O)CC(C)(C)O (configuration not stated) [2-Methyl-2,4-pentanediol] | 1.13 | 0.976 | 1.04 | 1.56 | 
CCOC(=O)c1ccc(O)cc1 [Ethylparaben] | 0.886 | 0.966 | 0.941 | 0.734 | 
CCCCCCOC(=O)CC(CC(=O)OCCCCCC)(OC(=O)CCC)C(=O)OCCCCCC [Butyryl trihexyl citrate] | 1.17 | 1.18 | 1.15 | 1.14 | 
COC(=O)CSc1cc(/N=c2\sc(=O)n3n2CCCC3)c(F)cc1Cl [Fluthiacet-methyl] | 1.09 | 0.963 | 1.11 | 1.21 | 0.983
NCc1cccc(C2CCN(C(=O)c3ccc(C#Cc4ccccc4F)o3)CC2)c1 | 1.02 | 1.01 | 1.02 | 0.974 | 
CCCCCOC(=O)COc1cc(N2C(=O)C3=C(CCCC3)C2=O)c(F)cc1Cl [Flumiclorac-pentyl] | 1.12 | 0.89 | 0.996 | 1.23 | 0.988
CCCCOC(=O)CCCCC(=O)OCCCC [Dibutyl hexanedioate] | 0.981 | 0.969 | 1 | 1.08 | 
CCc1cc(C2=C(C(=O)[O-])N(c3ccccc3C(F)(F)F)S(=O)(=O)c3ccccc32)cc2c1OCO2.[K+] [Fandosentan potassium salt] | 1.07 | 0.904 | 1.18 | 0.534 | 
CCCOC(=O)c1ccc(C(=O)OCCC)nc1 [Dipropyl pyridine-2,5-dicarboxylate] | 1.2 | 1.08 | 1.34 | 1.2 | 0.767
CCOc1ccc2c(c1)C(C)=CC(C)(C)N2 [Ethoxyquin] | 1.13 | 0.931 | 1.4 |  | 
CO[C@@H]1COCC[C@@H]1[NH2+][C@@H]1CC[C@@](C(=O)N2CCc3ncc(C(F)(F)F)cc3C2)(C(C)C)C1.O=C([O-])CCC(=O)O | 1.25 | 0.958 | 1.31 | 0.91 | 
CC(C)(C)c1cc(O)ccc1O [tert-Butylhydroquinone] | 1.14 | 1.24 | 0.885 | 0.804 | 
CCCN(CCC)c1c([N+](=O)[O-])cc(C(F)(F)F)c(N)c1[N+](=O)[O-] [Prodiamine] | 1.47 | 1.2 | 1.2 | 1.29 | 1.16
CCOC(=O)C(C)Oc1ccc(Oc2cnc3cc(Cl)ccc3n2)cc1 (configuration not stated) [Quizalofop-ethyl] | 1.1 | 1.03 | 1.09 | 0.981 | 0.779
CCCC(=O)OCCC(C)C [Isopentyl butyrate] | 1.01 | 0.909 | 0.985 | 0.828 | 
C[C@]12C=CC(=O)C=C1CC[C@H]1[C@@H]3C[C@@H](O)[C@](O)(C(=O)CO)[C@@]3(C)C[C@H](O)[C@@]12F [Triamcinolone] | 1.07 | 1.12 | 0.965 | 0.79 | 

SMILES | Wnt reporter firefly/Renilla luciferase ratio (concentration: 0.1 uM) | Wnt reporter firefly/Renilla luciferase ratio (concentration: 1 uM) | Wnt reporter firefly/Renilla luciferase ratio (concentration: 10 uM) | Wnt reporter firefly/Renilla luciferase ratio (concentration: 100 uM) | Wnt reporter firefly/Renilla luciferase ratio (concentration: 0.01 uM)
FC(F)(F)C(F)(F)C(F)(F)C(F)(F)C(F)(F)C(F)(F)CCI [1H,1H,2H,2H-Perfluorooctyl iodide] | 1.09 | 1.07 | 0.938 | 1 | 
COc1c(Cl)ccc(Cl)c1C(=O)O [Dicamba] | 0.917 | 1.08 | 1.16 | 1.15 | 0.872
CC(CO)OC(C)CO.CC(O)COCC(C)O (configuration not stated) [Dipropylene glycol] | 0.913 | 1.2 | 0.923 | 1.33 | 
CCCCCCCCOC(=O)c1cc(O)c(O)c(O)c1 [Octyl gallate] | 1.25 | 1.3 | 0.702 | 0.614 | 
CC(C)(C)c1cc(/C=C2\SC(=N)NC2=O)cc(C(C)(C)C)c1O.CS(=O)(=O)O [Darbufelone mesylate] | 1.11 | 0.907 | 1.28 |  | 
CCOC(=O)CC(CC(=O)OCC)(OC(C)=O)C(=O)OCC [Acetyltriethyl citrate] | 1.03 | 1.2 | 1.3 | 1.43 | 
CCCCCc1ccc(N)cc1 [4-Pentylaniline] | 0.846 | 0.875 | 0.933 | 1.07 | 
COc1cccc([C@H](O)C2CCN(CCc3ccc(F)cc3)CC2)c1OC [Volinanserin] | 1.14 | 0.889 | 1.34 | 0.324 | 
OCC(CO)(CO)CO [Pentaerythritol] | 1.18 | 1.51 | 1.13 | 1.27 | 
NC(=O)N(O)[C@@H]1COc2cc(OCc3ccccc3)ccc21 | 1.01 | 0.888 | 1.11 | 0.997 | 
O=C(O)CC(O)(CC(=O)O)C(=O)O [Citric acid] | 1.1 | 1.18 | 1.16 | 1.48 | 
CC1(C)C(=O)N(Br)C(=O)N1Br [1,3-Dibromo-5,5-dimethylhydantoin] | 0.79 | 1.01 | 1.06 | 1.25 | 
CCc1nn(C2CCCCC2)c2cc([C@]3(C#N)CC[C@@H](C(=O)O)CC3)ccc12 | 1.31 | 0.964 | 1.09 | 0.908 | 
CCCCCCCCCC(=O)O [Decanoic acid] | 1.43 | 1.04 | 1.39 | 0.794 | 
C=CCCCCCCCCCCCC [1-Tetradecene] | 1.2 | 1.18 | 1.09 | 1.19 | 
CCCCC(CC)CO (configuration not stated) [2-Ethyl-1-hexanol] |  |  | 1.62 |  | 
CCCCCCOCCO [2-(Hexyloxy)ethanol] | 1.23 | 0.979 | 1.06 | 1.13 | 
CCCCCCCC(=O)OC [Methyl octanoate] | 0.881 | 0.847 | 1.22 | 1.31 | 
O=c1[nH]c2cc([N+](=O)[O-])c([N+](=O)[O-])cc2[nH]c1=O | 0.916 | 0.997 | 0.882 | 1.48 | 0.945
CC1=C(C)S(=O)(=O)CCS1(=O)=O [Dimethipin] | 1.2 | 1.06 | 0.884 | 0.706 | 

In the list so far, these contain a tert-butyl group:
SMILES | Wnt reporter firefly/Renilla luciferase ratio (concentration: 0.1 uM) | Wnt reporter firefly/Renilla luciferase ratio (concentration: 1 uM) | Wnt reporter firefly/Renilla luciferase ratio (concentration: 10 uM) | Wnt reporter firefly/Renilla luciferase ratio (concentration: 100 uM) | Wnt reporter firefly/Renilla luciferase ratio (concentration: 0.01 uM)
CC(C)(C)c1ccc(O)c(C(C)(C)C)c1 [2,4-Di-tert-butylphenol] | 0.984 | 1.32 | 1.13 | 1.1 | 
CC(C)(C)c1cc(O)ccc1O [tert-Butylhydroquinone] | 1.14 | 1.24 | 0.885 | 0.804 | 
CC(C)(C)c1cc(/C=C2\SC(=N)NC2=O)cc(C(C)(C)C)c1O.CS(=O)(=O)O [Darbufelone mesylate] | 1.11 | 0.907 | 1.28 |  | 
